Measured values published in article PMC10838953.

System: 786-O cells
Settings: 5 μM, 24h, corrected p <0.05, |log2FC| > 0.5

SMILES	genes significantly differentially expressed compared to DMSO
CC(C)COC(=O)c1[nH]c2ccc(F)cc2c1-c1cn(CC2CCN(CCNS(=O)(=O)c3ccc(CC(C)C)cc3)CC2)nn1 [AB668, isobutyl 5-fluoro-3-(1-((1-(2-((4-isobutylphenyl)sulfonamido)ethyl)piperidin-4-yl)methyl)-1H-1,2,3-triazol-4-yl)-1H-indole-2-carboxylate]	48
O=C(O)c1ccc2c(c1)nc(Nc1cccc(Cl)c1)c1ccncc12 [CX-4945, silmitasertib]	102
